Drawing on paper PMC6511843, this text covers binding for 2 molecules.

These are yes or no findings as the source states them, for the method shown. For some assays here: In cells and extracts the contact can be indirect. Some entries that bind do so weakly or less than the wild type. For some assays here: Tags and fused reporters may be left off the sequences shown.

Assay [1] addresses T1, Endogenous ELK-1 (human (endogenous in DU145)) (UniProt P19419).
T1 sequence: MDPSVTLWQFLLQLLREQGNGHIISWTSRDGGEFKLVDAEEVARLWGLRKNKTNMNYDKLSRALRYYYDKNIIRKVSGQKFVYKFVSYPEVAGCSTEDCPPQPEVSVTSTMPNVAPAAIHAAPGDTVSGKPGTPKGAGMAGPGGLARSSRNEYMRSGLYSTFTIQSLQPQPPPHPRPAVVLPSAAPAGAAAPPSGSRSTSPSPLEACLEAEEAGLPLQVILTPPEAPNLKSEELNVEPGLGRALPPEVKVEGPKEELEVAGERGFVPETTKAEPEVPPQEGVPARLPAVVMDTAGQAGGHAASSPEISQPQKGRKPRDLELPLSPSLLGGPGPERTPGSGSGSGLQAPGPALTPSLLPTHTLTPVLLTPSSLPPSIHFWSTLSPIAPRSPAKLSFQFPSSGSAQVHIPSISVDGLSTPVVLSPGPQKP
The experiment in a line: co-IP; WCEs of DU145 cells, endogenous proteins; immunoprecipitates collected with control IgG or αELK-1 antibody; immunoblotting. In general terms: A western blot detects proteins with antibodies after separation by electrophoresis.

For another assay, the target named is T2, GST-USP17 (human) (UniProt Q6R6M4).
T2 sequence: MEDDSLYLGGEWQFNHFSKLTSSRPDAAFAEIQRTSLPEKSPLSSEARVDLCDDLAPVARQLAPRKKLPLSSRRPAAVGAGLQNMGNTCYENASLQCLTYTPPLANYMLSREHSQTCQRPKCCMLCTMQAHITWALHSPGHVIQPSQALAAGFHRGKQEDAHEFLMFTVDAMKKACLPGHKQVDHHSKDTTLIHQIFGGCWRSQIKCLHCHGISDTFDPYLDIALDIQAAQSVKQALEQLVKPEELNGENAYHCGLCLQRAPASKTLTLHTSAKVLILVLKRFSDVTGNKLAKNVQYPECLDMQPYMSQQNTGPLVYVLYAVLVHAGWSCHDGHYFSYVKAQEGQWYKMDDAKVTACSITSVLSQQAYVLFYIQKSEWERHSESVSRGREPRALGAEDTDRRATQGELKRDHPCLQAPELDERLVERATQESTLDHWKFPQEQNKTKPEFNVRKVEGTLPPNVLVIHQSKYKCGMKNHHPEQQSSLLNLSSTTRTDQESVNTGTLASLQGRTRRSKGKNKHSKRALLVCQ
The assay can be described thus: pull-down; GST or GST-USP17 fusions on glutathione agarose beads incubated with recombinant ELK-1, ELK-1 deletion mutants or ERK2; bound proteins detected by immunoblotting with an anti-His antibody; both purified.

B1: Endogenous USP17 (enzyme, UniProt Q6R6M4 1-530)
chain: T2 sequence
Turning to B1, the binding entry in assay [1] is listed as “binds”.

B2: recombinant ELK-1 (protein, UniProt P19419 1-428)
chain: T1 sequence
In the case of B2, in the assay with GST-USP17 (human), the binding entry is recorded as “binds”.
